According to article PMC5261807 (2017):
Results are given in words; binding and its absence hold for the method and conditions named. For some assays here: Binding seen in cells or lysates may run through a third protein. Some binding calls cover weakened binding; strength is not graded here. Sequences can lack the tags named with a protein.

How the values were obtained:
[1] = biological target: T1, Bdf2-TAP (S. cerevisiae) (UniProt Q07442); assay: tandem affinity purification with western blot; calmodulin eluates of TAP purifications from TAP-tagged Bdf2 and Swr1 strains, western blot for Bdf1
T1 sequence: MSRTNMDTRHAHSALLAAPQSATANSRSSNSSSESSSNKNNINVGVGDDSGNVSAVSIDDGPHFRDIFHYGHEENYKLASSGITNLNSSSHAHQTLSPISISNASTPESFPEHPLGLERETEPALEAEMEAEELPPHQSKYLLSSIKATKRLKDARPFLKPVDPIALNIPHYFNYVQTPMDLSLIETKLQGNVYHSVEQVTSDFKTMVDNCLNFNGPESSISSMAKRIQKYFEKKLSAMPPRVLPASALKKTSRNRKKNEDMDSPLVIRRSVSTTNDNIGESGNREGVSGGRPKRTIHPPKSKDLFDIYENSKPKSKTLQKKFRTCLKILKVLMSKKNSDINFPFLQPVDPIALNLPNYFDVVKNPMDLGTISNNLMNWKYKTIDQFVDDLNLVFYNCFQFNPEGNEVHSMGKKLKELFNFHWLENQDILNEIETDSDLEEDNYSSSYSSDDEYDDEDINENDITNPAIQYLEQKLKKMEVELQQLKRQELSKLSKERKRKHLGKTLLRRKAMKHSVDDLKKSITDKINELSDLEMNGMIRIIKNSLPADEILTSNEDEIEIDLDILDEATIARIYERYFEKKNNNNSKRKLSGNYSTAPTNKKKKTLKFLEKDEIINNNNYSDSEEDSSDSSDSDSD

[2] = biological target: T1, Bdf2-TAP (S. cerevisiae); assay: co-IP; cells grown on YPD; lysis in HEPES 50 mM pH 7.5, NaCl 140 mM, EDTA 1 mM, glycerol 10%, NP-40 0.5%; Bdf2-TAP immunoprecipitated 2 h at 4°C on Dynabeads Pan Mouse IgG; western blot with Bdf1 antiserum

B1: Bdf1 (wild-type, untagged) (protein, UniProt P35817 1-686)
chain: MTDITPVQNDVDVNGNNVNDDVSSNLKRPIDQGDPSNGLAEEENPANNQLHLKKARLDGDALTSSPAGLAENGIEGATLAANGENGYNATGSGAEDEQQGLKKEEGGQGTKQEDLDENSKQELPMEVPKEPAPAPPPEPDMNNLPQNPIPKHQQKHALLAIKAVKRLKDARPFLQPVDPVKLDIPFYFNYIKRPMDLSTIERKLNVGAYEVPEQITEDFNLMVNNSIKFNGPNAGISQMARNIQASFEKHMLNMPAKDAPPVIAKGRRSSAQEDAPIVIRRAQTHNGRPKRTIHPPKSKDIYPYESKKPKSKRLQQAMKFCQSVLKELMAKKHASYNYPFLEPVDPVSMNLPTYFDYVKEPMDLGTIAKKLNDWQYQTMEDFERDVRLVFKNCYTFNPDGTIVNMMGHRLEEVFNSKWADRPNLDDYDSDEDSRTQGDYDDYESEYSESDIDETIITNPAIQYLEEQLARMKVELQQLKKQELEKIRKERRLARGSKKRGKRSKGRSGSKNASSKGRRDKKNKLKTVVTYDMKRIITERINDLPTSKLERAIDIIKKSMPNISEDDEVELDLDTLDNHTILTLYNTFFRQYESSSGASNGLDGTSGVTRDASSLSPTSAGSRKRRSKALSQEEQSRQIEKIKNKLAILDSASPLSQNGSPGQIQSAAHNGFSSSSDDDVSSESEEE
binding [1]: binds
binding [2]: binds
